Read-outs that look alike come from different tables or passages of the source.
Details: followed by IR absorption spectra
Text: The term “stable” is used to describe an intimate mixture of desloratadine Form I and Form II that maintains the initial weight ratio of forms during formulation into a pharmaceutical dosage form and thereafter during a commercially useful period of normal storage and use, such as about one year, about 18 months, about two years, or any other desired period. […] Stability testing procedures are well known in the pharmaceutical industry.

Measured: Form I to Form II Ratio

Clc1ccc2c(c1)CCc1cccnc1C2=C1CCNCC1 [8-chloro-6,11-dihydro-11-(4-piperidylidene)-5H-benzo[5,6]cyclohepta[1,2-b]pyridine]
No change in IR absorption spectra: Long term storage for 24 months | Storage at 25 ± 5° C. and 60 ± 5% RH | Storage at 40 ± 5° C. and 70 ± 5% RH

— patent US20080287481A1, “PROCESS FOR THE PREPARATION OF DES[…] MIXTURES” (priority 2006, published 2008)
